Data reported in PubChem BioAssay AID540276 (National Center for Advancing Translational Sciences (NCATS), 2011).
Out of some 300,000 compounds screened, about 5,400 (1.8%) were called active. Inconclusive means that the source gave no clear call. Such entries were picked first, then a sample of the others. Calls come from the whole dose curve; tested in HEK293 cells. Potencies beside an inconclusive call are fits to weak or partial responses and may not hold up.
Potency is the fitted concentration of half-maximal effect.

Assay: qHTS for inhibitors of binding or entry into cells for Marburg Virus
Settings: Marburg virus pseudotyped entry inhibition, cell reporter; series mostly up to 37.8 µM
In the case of `COc1cccc(-c2nn(-c3ccc(C)cc3)cc2C(=O)N2CCc3cc(OC)c(OC)cc3C2)c1`, the Potency is reported as inconclusive: 12.6 µM [inhibitor, partial curve, poor fit].
With `CN1CCN(c2ccc(NC(=O)CN3CCOCC3)cc2F)CC1` the Potency was inconclusive: 6.31 µM [inhibitor, single point].
For `N#CC(C#SN)=C1CCCCC1`, the Potency was inconclusive: 4.47 µM [inhibitor, full curve, poor fit].
In the case of `O=C1CC(c2ccccc2)=NO1`, the Potency is reported as inconclusive: 12.6 µM [activator, single point].
In the case of `CCOc1ccc(S(=O)(=O)NCc2ccc(OC)cc2)c2cccnc12`, the Potency is reported as inconclusive: 6.31 µM [activator, single point].
For `CCN(C(=O)Cn1ncc2c(=O)oc3ccccc3c21)c1ccccc1F`, the Potency was inconclusive: 2.24 µM [inhibitor, partial curve, poor fit].
In the case of `CN(C)S(=O)(=O)c1cccc(NC(=O)COC(=O)/C=C/c2ccco2)c1`, the Potency is reported as inconclusive: 3.98 µM [activator, single point].
For `CCc1ccc(OCC(=O)NNC(=O)c2c(CC)noc2C)cc1`, the Potency was inconclusive: 1.26 µM [inhibitor, single point].
For `CCN(CC)CCN(C(=O)c1ccc2ncsc2c1)c1nc2cc3c(cc2s1)OCO3`, the Potency was inconclusive: 10 µM [inhibitor, single point].
In the case of `CCn1c(CNC(=O)COc2c(C)cccc2C)nnc1SCC(=O)Nc1nccs1`, the Potency is reported as inconclusive: 29.1 µM [inhibitor, partial curve, poor fit].
In the case of `O=c1[nH]c(NCc2ccccc2)nc2c1CCCC2`, the Potency is reported as “inactive”.
For `CCCOc1cccc(C2c3c(oc4ccc(F)cc4c3=O)C(=O)N2c2nc(C)c(C(C)=O)s2)c1` (centres undefined), the Potency was inconclusive: 1 µM [inhibitor, full curve, poor fit].
In the case of `O=S(=O)(c1ccc2c(c1)nc(COc1ccc(Cl)cc1)n2CC1CCCO1)N1CCOCC1` (centres undefined), the Potency is reported as inconclusive: 13 µM [inhibitor, partial curve, poor fit].
With `CCOC(=O)c1c(C)n(CCN2CCN(C)CC2)c2ccc(OC)cc12` the Potency was inconclusive: 32.6 µM [inhibitor, single point].
For `O=C(CCCC(=O)N(CC(=O)NC1CCCC1)c1ccc(F)c(Cl)c1)Nc1ccccn1`, the Potency was inconclusive: 17.8 µM [activator, single point].
In the case of `CCOC(=O)C1=C(C)NC(C)=C(C(=O)OCC)C1c1ccc([N+](=O)[O-])s1`, the Potency is reported as inconclusive: 25.1 µM [inhibitor, single point].
For `CN(C)c1ncnc2c1C(c1ccccc1)C(C)(C)O2` (centres undefined), the Potency was “inactive”.
In the case of `CCOc1cc(C(c2c(C)[nH][nH]c2=O)c2c(C)[nH][nH]c2=O)ccc1OS(=O)(=O)c1ccc(C)cc1`, the Potency is reported as “inactive”.
In the case of `COc1cc(OC)cc(C(=O)NCc2ccc(-n3cccc3)cc2)c1`, the Potency is reported as inconclusive: 8.91 µM [inhibitor, partial curve, poor fit].
With `COc1ccc(NC(=O)C2CCCN2C(=O)OCc2ccccc2)cc1` (centres undefined) the Potency was “inactive”.
In the case of `CSc1ccc(/C=N/NC(=O)c2cccc(O)c2)cc1`, the Potency is reported as inconclusive: 20 µM [inhibitor, single point].
For `Cc1ccc(-c2nc(N/N=C/c3cccnc3)c3ccccc3n2)cc1`, the Potency was inconclusive: 29.1 µM [inhibitor, single point].
With `Nc1ccc2nc(Cc3ccccc3)[nH]c2c1` the Potency was inconclusive: 14.1 µM [activator, partial curve, poor fit].
For `CN(C(=S)NC(=O)C1(C)CC1(Cl)Cl)c1ccccc1` (centres undefined), the Potency was “inactive”.
With `O=C(CN1CCN(CC(=O)c2ccc(F)cc2)CC1)Nc1ccccc1Cl` the Potency was inconclusive: 0.794 µM [inhibitor, full curve].
In the case of `Cc1ccc(N=Cc2ccccc2O)cc1Cl`, the Potency is reported as inconclusive: 6.31 µM [activator, partial curve, poor fit].
In the case of `CCN(CC)c1ccc(/C=C2\C(=O)NC(=S)N(C)C2=O)o1`, the Potency is reported as inconclusive: 0.891 µM [activator, full curve, poor fit].
For `CC(C)n1c(/N=C/c2ccccc2O)nc2ccccc21`, the Potency was inconclusive: 35.5 µM [inhibitor, single point].
In the case of `COc1ccc(C(=O)Cn2c(C(=O)/C=C/c3ccccc3)nc3ccccc32)cc1`, the Potency is reported as inconclusive: 29.1 µM [inhibitor, single point].
In the case of `O=C(CCCC(=O)NN=Cc1ccccc1Cl)NN=Cc1ccccc1Cl`, the Potency is reported as “inactive”.
With `COc1cccc(C(=O)NCC(=O)N2CCC3(CC2)NCCc2[nH]cnc23)c1OC` the Potency was “inactive”.
In the case of `COc1ccc(CNC(=O)c2ccc(Cn3nc(C)c([N+](=O)[O-])c3C)o2)cc1`, the Potency is reported as inconclusive: 11.2 µM [inhibitor, partial curve, poor fit].
In the case of `CCOC(=O)c1sc(NC(=O)C(C)C)c(C#N)c1C`, the Potency is reported as inconclusive: 6.31 µM [inhibitor, single point].
In the case of `COc1ccc(C(=O)/C=C/Nc2ccccn2)c(OC)c1`, the Potency is reported as inconclusive: 0.708 µM [activator, partial curve, poor fit].
For `C=CCN1C(=O)C(CC(=O)Nc2ccc(OCCC)cc2)N(CCCN2CCN(Cc3ccccc3)CC2)C1=S` (centres undefined), the Potency was inconclusive: 3.98 µM [inhibitor, full curve, poor fit].
With `CCOC(=O)c1c(C)nc2c(C)cccn12` the Potency was “inactive”.
In the case of `CCOC(=O)C(=Cc1cc(=O)c(OC)co1)C(=O)OCC`, the Potency is reported as inconclusive: 29.1 µM [inhibitor, partial curve, poor fit].
With `CN(C)CCC(c1ccccc1)c1ccccn1` (centres undefined) the Potency was inconclusive: 35.5 µM [inhibitor, single point].
For `COc1ccccc1-c1noc(CCCC(=O)NC2CCCCC2)n1`, the Potency was “inactive”.
With `CNC(=O)c1c(NC(=O)Cc2coc3ccc(OC)cc23)sc2c1CCCC2` the Potency was inconclusive: 11.2 µM [inhibitor, single point].
For `Cc1ccc(C)c(S(=O)(=O)N2CCCOC2CNC(=O)C(=O)NCCC2=CCCCC2)c1` (centres undefined), the Potency was “inactive”.
For `NS(=O)(=O)c1ccc(NC(=O)c2cc(Cl)ccc2Cl)cc1`, the Potency was inconclusive: 15.8 µM [inhibitor, single point].
With `CCCN1C(=O)/C(=C2/C=Cc3ccccc3N2CC)SC1=S` the Potency was inconclusive: 35.5 µM [inhibitor, single point].
With `CCCCCCC#Cc1cncc(C(=O)NNC(=O)Nc2cc(Cl)cc(Cl)c2)c1` the Potency was inconclusive: 35.5 µM [inhibitor, single point].
In the case of `Cc1nc(-c2ccc(F)cc2)c(CC(=O)N2CCN(S(=O)(=O)c3cccc(F)c3)CC2)s1`, the Potency is reported as “inactive”.
With `CC(C)Oc1cccc(C(=O)NC(=S)Nc2cccc(NC(=O)c3ccccc3Cl)c2)c1` the Potency was “inactive”.
For `Oc1ccccc1C1SC(c2ccccc2O)SC(c2ccccc2O)S1` (centres undefined), the Potency was inconclusive: 35.5 µM [inhibitor, single point].
For `COc1cccc(C(=O)CC(C#N)c2ccc(F)cc2)c1` (centres undefined), the Potency was “inactive”.
In the case of `N#C/C(=N\Nc1ccc(F)cc1)C(=N)N1CCCCCC1`, the Potency is reported as inconclusive: 11.2 µM [inhibitor, single point].
For `CN(C)S(=O)(=O)c1ccc(Cl)c(NC(=O)CN2CCC(Cc3ccccc3)CC2)c1`, the Potency was inconclusive: 35.5 µM [inhibitor, single point].
With `O=S(=O)(c1ccccc1)N1CCN(CC(O)COc2ccc3c(c2)CCC3)CC1` (centres undefined) the Potency was inconclusive: 29.1 µM [inhibitor, single point].
In the case of `O=C(c1ccccc1Nc1ccc(SC(F)F)cc1)N1CCCCCC1`, the Potency is reported as “inactive”.
With `CCCc1nnc(NC(=O)Nc2ccccc2OC)s1` the Potency was inconclusive: 6.31 µM [activator, single point].
For `N#Cc1cccc(NC(=O)COc2ccc(-n3ccnc3)cc2)c1`, the Potency was “inactive”.
For `COc1ccccc1CN(CC(=O)NCc1ccc2c(c1)OCO2)C(=O)c1csnn1`, the Potency was inconclusive: 0.562 µM [inhibitor, partial curve, poor fit].
In the case of `CC(=O)OC(C(=O)N1CCN(c2ccccc2F)CC1)c1ccccc1` (centres undefined), the Potency is reported as inconclusive: 0.651 µM [activator, full curve, poor fit].
In the case of `COc1ccc(-c2noc(CSc3nc4ccccc4[nH]3)n2)cc1`, the Potency is reported as “inactive”.
In the case of `Cc1ccc(C(C)C)c(OCC(=O)N2CCN(Cc3nc4cc([N+](=O)[O-])ccc4n3C)CC2)c1`, the Potency is reported as “inactive”.
In the case of `Cc1ccc(Nc2c(-c3ccc(C)cc3)nc3c(C)cccn23)cc1`, the Potency is reported as inconclusive: 3.55 µM [activator, single point].
With `CC(C)c1ccc(Nc2c(-c3ccc(N(C)C)cc3)nc3cnccn23)cc1` the Potency was “inactive”.
With `O=C(Nc1nccs1)c1ccc(N2CCOCC2)c([N+](=O)[O-])c1` the Potency was inconclusive: 6.31 µM [activator, single point].
For `O=C(NCCc1ccccc1)c1cccc(S(=O)(=O)NCc2ccccc2)c1`, the Potency was “inactive”.
In the case of `CCN(c1cccc(C)c1)c1nc2ccsc2c(=O)s1`, the Potency is reported as inconclusive: 3.16 µM [activator, single point].
With `COc1ccc(OC)c(NC(=O)CSc2ncnc3sc(C)cc23)c1` the Potency was inconclusive: 11.2 µM [inhibitor, single point].
In the case of `CCCCCn1c(=O)[nH]c2cc(C(=O)N3CCN(Cc4ccc5c(c4)OCO5)CC3)ccc2c1=O`, the Potency is reported as inconclusive: 1 µM [inhibitor, full curve, poor fit].
In the case of `CCOC(=O)c1ccc2nc(NC(=O)c3cccs3)sc2c1`, the Potency is reported as active: 4.47 µM.
With `COC(=O)c1cc2sc(C)cc2n1Cc1nc(-c2ccc(C)cc2)oc1C` the Potency was “inactive”.
For `c1ccc2c(c1)C(=NC1CCCCC1)NC2=NC1CCCCC1`, the Potency was active: 5.8 µM.
With `CC(C)CC1=C/C(=C/c2ccc(-c3ccccc3)o2)C(=O)O1` the Potency was inconclusive: 0.398 µM [inhibitor, partial curve, poor fit].
